PubChem BioAssay AID687031 (Broad Institute, 2013)
About 50 (4%) of roughly 1,400 compounds were called active.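 How the source made its calls: active means fitted curve reaches 30% CPE protection at or below the top valid dose, with every test run called active; inconclusive means test runs disagree, some active and some not; inactive means every test run inactive, including effects in the wrong direction.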 Some of the results follow. Potency and affinity values are given separately.

Assay: Dengue virus 2 cytopathic effect protection, dose response, BHK-21 cells, ATP luminescence, cherry-pick (AID 687031);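 further: 0% = infected DMSO wells and 100% = uninfected cell wells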
Conditions: BHK-21 DENV2 CPE protection, 5 d; at 19.5 µM (top of the series) unless noted

CPE protection (higher = active), inactive:
CC(C)CN1CCCC(N2CCN(c3cccc(Cl)c3)CC2)C1 (configuration not stated) 13.2%, COc1ccccc1N(CC(=O)N1CCCC1)S(=O)(=O)c1ccc(C)cc1 -2.22%, COc1cccc(OC)c1C(=O)N1CCN(Cc2c[nH]c3ccccc23)CC1 0.286%, Cc1cccc(OCCn2c(=O)n(C)c3ccccc32)c1 -10.2%, CCN(C[C@H]1N[C@@](C)(C(=O)OC)[C@H]2C(=O)N(C)C(=O)[C@@H]12)S(=O)(=O)c1ccc(-c2ccccc2)cc1 11.6%, COc1ccc(NC(=O)C2CCC(CNS(=O)(=O)c3cccs3)CC2)cc1OC (configuration not stated) 1.38%, COC(=O)Cc1ccc(OC2(C)CCN(Cc3csc4ccccc34)C2)cc1 (configuration not stated) -2.94%, N#C[C@@H]1[C@H](c2ccc(-c3ccccc3F)cc2)[C@H](CO)N1C(=O)C1CC1 -0.808% [at 21 µM], COc1cc2c(cc1OC)CN(C(=O)CCOc1ccccc1C)CC2 -5.53% [at 10 µM], COc1ccc(CNC(=O)C[C@H]2C(=O)N(Cc3ccccc3)C[C@@H]2Cc2ccccc2)cc1 -13.9%, CC(C)NC(=O)Nc1ccc2c(c1)C(=O)N([C@H](C)CO)C[C@H](C)[C@H](CN(C)CC1CC1)OCCCC[C@@H](C)O2 4.87%, COc1ccc2c3c([nH]c2c1)[C@H](CO)N(C(=O)Nc1cccc(F)c1)CC31CN(S(=O)(=O)c2ccccc2)C1 -14%, Nc1ccc(-c2cc3ccccc3c(=O)o2)cc1 -10%, CC(C)(C)OC(=O)CNC(=O)c1[nH]cnc1C(=O)N[C@@H](Cc1ccccc1)C(=O)OC(C)(C)C -7.2%, COc1cccc(N2CC(C(=O)Nc3ccc(F)cc3)CC2=O)c1 (configuration not stated) 0.93%, Cc1cccc(C(=O)N2CCC(=O)N([C@H](COCc3ccc(Cl)cc3)Cc3ccccc3)CC2)c1 -2.82%, CCN1C(=NCCc2c[nH]c3ccccc23)N[C@@H](c2ccccc2)[C@H](C(=O)OC)[C@H]1C -6.67%, CC1(c2ccc3ccccc3c2)CCC(=O)O1 (configuration not stated) 13.5%, Cn1c(=O)c2nc(Cl)c(-c3ccccc3)nc2n(C)c1=O 20.6%, Cc1noc(C)c1NC(=O)N(C)C[C@H]1OCCCC[C@H](C)Oc2ccc(NC(=O)NC(C)C)cc2C(=O)N([C@H](C)CO)C[C@@H]1C 28.6%, Cc1ccc(S(=O)(=O)Nc2ccc3c(c2)C(=O)N([C@@H](C)CO)C[C@@H](C)[C@H](CN(C)S(=O)(=O)c2ccc(Cl)cc2)OCCCC[C@@H](C)O3)cc1 -29.8%, CCCCc1cc(=O)oc2cc(C)cc(OCC(=O)N3CCC(C(N)=O)CC3)c12 -11.2%, CN(C)C1(CNC(=O)C2CCN(S(=O)(=O)c3ccccc3C(F)(F)F)CC2)CCCCC1 2.84%, Cc1ccc(NC(=O)C2CCCCC2)cc1C 14.2%, CCOC(=O)[C@]12CCC=C1N(Cc1ccccc1)C(=O)[C@H](CC(=O)N1CCCC1)C2 -6.62%, CCOC(=O)c1ccc(S(=O)(=O)N2CCC(N3CCCCC3)CC2)cc1 -21.5%, Cc1cc2c(cc1S(=O)(=O)N1CCN(c3cccc(C(F)(F)F)c3)CC1)OCC(=O)N2 -26.9%, CCCNC(=O)N1C[C@H](O)COC[C@@H]2O[C@@H](CC(=O)N3CCOCC3)CC[C@H]21 -1.19%, COc1ccc(COCCN2CCN(S(=O)(=O)c3ccc(C)cc3)CCC2=O)cc1 5.92%, O=C(C[C@H]1C(=O)N(Cc2ccccc2)C[C@@H]1Cc1ccccc1)Nc1ccc(Br)cc1 -3.63%, O=C1[C@@H](Oc2ccccc2)[C@@H](c2ccncc2)N1c1ccncc1 -3.03%, COc1ccc(S(=O)(=O)Nc2cccc3c2O[C@@H](CN(C)S(C)(=O)=O)[C@@H](C)CN([C@@H](C)CO)C3=O)cc1 16.5%, CCOC(=O)c1ccc(NC(=O)c2nc[nH]c2C(=O)NC2CCN(C(=O)OC(C)(C)C)CC2)cc1 10.6%, CNC(=O)c1[nH]cnc1C(=O)Nc1ccc(Cl)cc1 -6.09%, COc1ccc(N2CCN(c3cc(C(=O)NC4CCCCC4)ncn3)CC2)cc1OC 3.15%, C[C@H](CO)N1C[C@H](C)[C@@H](CN(C)C(=O)Cc2ccccc2)OCCCC[C@H](C)Oc2ccc(NS(=O)(=O)c3ccc(F)cc3)cc2C1=O 6.37%, Nc1ccc(N2C(=O)c3ccccc3C2=O)c(Cl)c1 -7.96%, COc1ccccc1C(=O)N1[C@@H](C(C)C)COc2cc(Br)ccc2S1(=O)=O -34.3%, COc1ccc(-c2cc(N3C(=O)Nc4ccccc4N3O)n[nH]2)cc1OC -9.71%, CC(=O)Nc1cc(-c2ccc(C(=O)NC3CC3)cc2)cn2c(-c3cccc(C(F)(F)F)c3)cnc12 -8.05%, COC(=O)N1CCCCC1c1cc(C(=O)Nc2ccccc2Cl)no1 (configuration not stated) -13.9%, CCN(CC(=O)Nc1ccc(NC(C)=O)cc1)C(=O)Cc1c(Cl)cccc1Cl 3.67%, CC1(C#N)c2ccccc2C(Br)=CN1C(=O)c1ccccc1 (configuration not stated) -21.5%, COc1ccc(C2=Nc3ccccc3N(C(=O)c3ccncc3)C2C(=O)NC(C)C)cc1 (configuration not stated) 5%, COc1ccc(CN(C)C[C@H]2OCCCC[C@@H](C)Oc3ccc(NC(=O)NC(C)C)cc3C(=O)N([C@H](C)CO)C[C@H]2C)cc1 13.6% [at 21 µM], O=C(COc1ccccc1)NCC(=O)N/N=C/c1ccc(Br)cc1 -10.9%, CC[C@H](C)C(=O)O[C@H]1C[C@@H](C)C=C2C=C[C@H](C)[C@H](CC[C@@H]3C[C@@H](O)CC(=O)O3)[C@H]21 16.6%, COc1ccc(C)cc1NC(=O)C1CCN(S(=O)(=O)c2cccc3cccnc23)CC1 -19.9%, O=C1OC(N2C(=O)CC[C@H]2C(=O)NCC2CCCO2)c2ccccc21 (some centres not stated) -18.2%, O=C(NCC1CCCCC1)[C@@H]1[C@@H](CO)[C@@H]2Cn3c(ccc(-c4cccnc4)c3=O)[C@H]1N2 20.2% [at 10 µM], COc1ccc(CN(CCC(c2ccccc2)C2CCOC(C)(C)C2)C(C)=O)cc1 (configuration not stated) 25.5%, COc1ccc(CCC(=O)Nc2cc(S(=O)(=O)N3CCOCC3)ccc2OC(C)C)cc1 -14.1%, C[C@H](CO)N1C[C@H](C)[C@H](CN(C)C(=O)Nc2ccc(F)cc2)OCCCC[C@H](C)Oc2ccc(NC(=O)c3ccccc3)cc2C1=O -8.7%, COc1ccc(NC(=O)N2C[C@@H](O)COC[C@@H]3O[C@H](CC(=O)NC4Cc5ccccc5C4)CC[C@H]32)cc1 6.49%, O=C(Nc1cc(F)cc(F)c1)c1sc(Cl)nc1-c1ccccc1 9.12%, C[C@H](CO)N1C[C@H](C)[C@@H](CN(C)Cc2ccc(Oc3ccccc3)cc2)Oc2ccc(NC(=O)Cn3cnnn3)cc2CC1=O 11.8%, COc1cc(NC(=O)c2nccn2C)cc(C(=O)Nc2cccc(C(F)(F)F)c2)c1 2.37%, Cc1c(C(=O)NCc2cccnc2)oc2ccc(S(=O)(=O)N3CC(C)CC(C)C3)cc12 (configuration not stated) 5.46%, C[C@H](CO)N1C[C@H](C)[C@@H](CN(C)C(=O)Nc2ccc(C(F)(F)F)cc2)OCCCC[C@H](C)Oc2ccc(NS(=O)(=O)c3ccc(F)cc3)cc2C1=O -0.779%, COc1ccc(NS(=O)(=O)c2cccs2)cn1 5.62%, Cc1ccc2oc3c(c(=O)c2c1)C(c1cccc(Cl)c1)N(CCCN1CCOCC1)C3=O (configuration not stated) -17.4%, COc1ccccc1Nc1ncnc2c1c(C)c(C)n2CCCN(C)C 25.7%, O=C(O)c1ccc(CNC(=O)C2CCCN2C(=O)OCc2ccccc2)cc1 (configuration not stated) 1.02%, CCOc1ccc2[nH]c3ncccc3c(=O)c2c1 -4.21%, CC(=O)Nc1ccc2c(c1)C(=O)N(C)[C@H]1CC[C@H](CC(=O)Nc3cccc(C(C)C)c3)O[C@@H]1CO2 19.4%, CCCn1c(-c2ccc[nH]c2=O)nc2cc(C)c(C)cc21 3.25%, O=C(NCC1CC1)C1(S(=O)(=O)c2ccccc2)CC=CC1 6.73%, COc1ccc(C(C)NC(=O)c2ccccc2Cl)cc1OC (configuration not stated) -4.47%, COc1c(Cl)cc(Br)c(OC)c1C(=O)NC(=O)Nc1nc(C)cc(C)n1 2.64%, C[C@H]1CN([C@@H](C)CO)C(=O)c2cccc(NC(=O)C3CCCCC3)c2O[C@@H]1CN(C)Cc1ccc(C(=O)Nc2ccccc2N)cc1 -4.75%, COc1ccc(OC)c(-c2cc(C(=O)NC3CCCC3)c3ccccc3n2)c1 -28.9%, Cc1cccnc1 -1.59%, CCCCC[C@H]1CN(CCc2ccccc2)C(=O)[C@@H]1CC(=O)NCc1ccc(OC)cc1 -4.13%, O[C@H]1CN(CC2CCCCC2)[C@@H](c2ccc(Cl)cc2)C[C@@H]1n1cc(C2CC2)nn1 34.8%, O=C(CC1NCCN(Cc2ccccc2)C1=O)Nc1ccccc1 (configuration not stated) -13%, COC(=O)c1c(NC(=O)CC2Sc3ccc(C(F)(F)F)cc3NC2=O)sc(C)c1C (configuration not stated) -25.4%, Cc1cc(F)ccc1S(=O)(=O)Nc1ncnc2scc(-c3ccc(F)cc3)c12 -25.9%
